According to publication PMC10023679 (Nature Communications, 2023):

Assay: general procedure: Fmoc solid-phase peptide synthesis; 2-chlorotrityl chloride resin (1.6 mmol/g); HATU/DIPEA (manual); COMU (Syro I); DIC/DMAP for ester bonds; PyAOP/HOAt/DIPEA f
Settings: conjugation step, UPLC (LC purity); UPLC-MS for 8-mer and 9-mer

Substance	final purity (method not given) [%]
cyclo(K([Suc-NH(CH2CH2O)2(CH2)6Cl])[dL]LL[dP][Hpla]) (SMILES CC(C)C[C@@H]1NC(=O)[C@@H](CC(C)C)NC(=O)[C@H](CCCCNC(=O)CCC(=O)NCCOCCOCCCCCCCl)NC(=O)[C@H](Cc2ccc(O)cc2)OC(=O)[C@H]2CCCN2C(=O)[C@H](CC(C)C)NC1=O)	98
cyclo(K([Suc-NH(CH2CH2O)2(CH2)6Cl])[dL]LL[dP]Y) (SMILES CC(C)C[C@@H]1NC(=O)[C@@H](CC(C)C)NC(=O)[C@H](CCCCNC(=O)CCC(=O)NCCOCCOCCCCCCCl)NC(=O)[C@H](Cc2ccc(O)cc2)NC(=O)[C@H]2CCCN2C(=O)[C@H](CC(C)C)NC1=O)	> 99

Same assay, conditions: whole synthesis, UPLC (LC purity); UPLC-MS for 8-mer and 9-mer, scale 100 µmol

Substance	final purity (method not given) [%]
cyclo(L[dP]L[dV][NMeL][dP]L[dV]) (SMILES CC(C)C[C@@H]1NC(=O)[C@H]2CCCN2C(=O)[C@H](CC(C)C)NC(=O)[C@@H](C(C)C)NC(=O)[C@H](CC(C)C)NC(=O)[C@H]2CCCN2C(=O)[C@H](CC(C)C)N(C)C(=O)[C@@H](C(C)C)NC1=O)	95

Same assay, conditions: whole synthesis, UPLC (LC purity); UPLC-MS for 8-mer and 9-mer, scale of the general procedure 20 mg resin, 32 µmol (6-mers), 100 µmol (8-mer and 9-mer)

Substance	final purity (method not given) [%]	final HPLC purity [%]
cyclo(L[dL][Hica(2S)]L[dP]Y) (SMILES CC(C)C[C@@H]1NC(=O)[C@H](Cc2ccc(O)cc2)NC(=O)[C@H]2CCCN2C(=O)[C@H](CC(C)C)NC(=O)[C@H](CC(C)C)OC(=O)[C@@H](CC(C)C)NC1=O)	> 99	
cyclo(L[dV][NMeL][dP]L[dV][NMeL][dP])	97	
cyclo(L[NMeL][dP]YL[dL]) (SMILES CC(C)C[C@@H]1NC(=O)[C@H](Cc2ccc(O)cc2)NC(=O)[C@H]2CCCN2C(=O)[C@H](CC(C)C)N(C)C(=O)[C@H](CC(C)C)NC(=O)[C@@H](CC(C)C)NC1=O)	98	
cyclo(L[dL][NMeL]L[dP]Y) (SMILES CC(C)C[C@@H]1NC(=O)[C@H](Cc2ccc(O)cc2)NC(=O)[C@H]2CCCN2C(=O)[C@H](CC(C)C)NC(=O)[C@H](CC(C)C)N(C)C(=O)[C@@H](CC(C)C)NC1=O)	> 99	
cyclo(LL[dP]YL[dHica]) (SMILES CC(C)C[C@@H]1NC(=O)[C@@H](CC(C)C)OC(=O)[C@H](CC(C)C)NC(=O)[C@H](Cc2ccc(O)cc2)NC(=O)[C@H]2CCCN2C(=O)[C@H](CC(C)C)NC1=O)	> 99	
cyclo(LL[dP][Hpla]L[dL]) (SMILES CC(C)C[C@@H]1NC(=O)[C@H](Cc2ccc(O)cc2)OC(=O)[C@H]2CCCN2C(=O)[C@H](CC(C)C)NC(=O)[C@H](CC(C)C)NC(=O)[C@@H](CC(C)C)NC1=O)	87	
cyclo(L[dL]L[Hica(2S)][dP]Y) (SMILES CC(C)C[C@@H]1NC(=O)[C@H](Cc2ccc(O)cc2)NC(=O)[C@H]2CCCN2C(=O)[C@H](CC(C)C)OC(=O)[C@H](CC(C)C)NC(=O)[C@@H](CC(C)C)NC1=O)	> 99	
cyclo(LL[dP][NMeY]L[dL]) (SMILES CC(C)C[C@@H]1NC(=O)[C@@H](CC(C)C)NC(=O)[C@H](CC(C)C)NC(=O)[C@H](Cc2ccc(O)cc2)N(C)C(=O)[C@H]2CCCN2C(=O)[C@H](CC(C)C)NC1=O)	> 99	
cyclo(LL[dP]Y[Hica(2S)][dL]) (SMILES CC(C)C[C@@H]1NC(=O)[C@@H](CC(C)C)NC(=O)[C@H](CC(C)C)OC(=O)[C@H](Cc2ccc(O)cc2)NC(=O)[C@H]2CCCN2C(=O)[C@H](CC(C)C)NC1=O)	> 99	
cyclo(FS[dL]LL[dP]) (SMILES CC(C)C[C@@H]1NC(=O)[C@@H](CC(C)C)NC(=O)[C@H](CO)NC(=O)[C@H](Cc2ccccc2)NC(=O)[C@H]2CCCN2C(=O)[C@H](CC(C)C)NC1=O)		> 99
cyclo(LL[dP]Y[NMeL][dL]) (SMILES CC(C)C[C@@H]1NC(=O)[C@@H](CC(C)C)NC(=O)[C@H](CC(C)C)N(C)C(=O)[C@H](Cc2ccc(O)cc2)NC(=O)[C@H]2CCCN2C(=O)[C@H](CC(C)C)NC1=O)	> 99	
cyclo(YL[dNMeL]LL[dP])	> 99	
cyclo(FK[dL]LL[dP]) (SMILES CC(C)C[C@@H]1NC(=O)[C@@H](CC(C)C)NC(=O)[C@H](CCCCN)NC(=O)[C@H](Cc2ccccc2)NC(=O)[C@H]2CCCN2C(=O)[C@H](CC(C)C)NC1=O)		94
cyclo(LL[dP]YL[dL])		96
cyclo(L[dV][NMeL][dP]L[dV][Hica(2S)][dP]) (SMILES CC(C)C[C@@H]1NC(=O)[C@H]2CCCN2C(=O)[C@H](CC(C)C)OC(=O)[C@@H](C(C)C)NC(=O)[C@H](CC(C)C)NC(=O)[C@H]2CCCN2C(=O)[C@H](CC(C)C)N(C)C(=O)[C@@H](C(C)C)NC1=O)	> 99	

Assay: peptide synthesis
Settings: whole synthesis

Substance	final purity (method not given) [%]
cyclo([dA][dP][dL][dV][dA][dP][dNMeL][dV]) (SMILES CC(C)C[C@@H]1C(=O)N[C@H](C(C)C)C(=O)N[C@H](C)C(=O)N2CCC[C@@H]2C(=O)N[C@H](CC(C)C)C(=O)N[C@H](C(C)C)C(=O)N[C@H](C)C(=O)N2CCC[C@@H]2C(=O)N1C)	92
cyclo([dA][dP][dNMeL][dV][dA][dP][dHica][dV]) (SMILES CC(C)C[C@@H]1C(=O)N[C@H](C(C)C)C(=O)N[C@H](C)C(=O)N2CCC[C@@H]2C(=O)O[C@H](CC(C)C)C(=O)N[C@H](C(C)C)C(=O)N[C@H](C)C(=O)N2CCC[C@@H]2C(=O)N1C)	96

Starred links: 1 amine or outer side, 2 acyl side, 3 side chain; linkers in the order of their positions; H or OH if unused. Non-standard residues stand in square brackets, D forms with d. Groups on a side chain read outwards from the residue. *: point of attachment. NH(CH2CH2O)2(CH2)6Cl = ClCCCCCCOCCOCCN*; NMeY = CN[C@@H](Cc1ccc(O)cc1)C(=O)O; Hpla = O=C(O)[C@@H](O)Cc1ccc(O)cc1; Hica(2S) = CC(C)C[C@H](O)C(=O)O; NMeL = CN[C@@H](CC(C)C)C(=O)O; dHica = CC(C)C[C@@H](O)C(=O)O; dNMeL = CN[C@H](CC(C)C)C(=O)O; Suc = O=C(CCC(=O)[*:2])[*:1]
